Reference: the supplement of paper PMC3334620
In all, about 33,000 sequences were measured (“E-score (-0.5 to 0.5)”: median about -0.0014, highest 2% from about 0.25 on). This is one part of the list.

Target: T1, Cad1 (UniProt P24813)
T1 sequence: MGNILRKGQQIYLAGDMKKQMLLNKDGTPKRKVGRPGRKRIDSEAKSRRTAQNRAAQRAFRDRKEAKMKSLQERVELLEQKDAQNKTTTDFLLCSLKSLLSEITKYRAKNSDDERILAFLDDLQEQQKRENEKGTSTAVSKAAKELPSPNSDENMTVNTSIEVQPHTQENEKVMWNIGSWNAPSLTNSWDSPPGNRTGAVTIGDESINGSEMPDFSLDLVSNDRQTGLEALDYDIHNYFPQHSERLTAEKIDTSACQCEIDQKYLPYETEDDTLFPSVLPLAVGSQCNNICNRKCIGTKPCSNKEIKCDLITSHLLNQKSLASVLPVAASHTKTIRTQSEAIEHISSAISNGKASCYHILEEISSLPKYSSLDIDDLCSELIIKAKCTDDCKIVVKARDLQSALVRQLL
Assay: PBM E-score (8-mer binding enrichment) (E-score (-0.5 to 0.5)); higher = stronger / more preferred TF binding
Details: protein concentration: 100 nM; construct: GST-full length
Procedure, shortened: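 PURExpress in vitro transcription/translation supplied GST-tagged yeast transcription factors, either full-length or DNA-binding domain. Applied at about 100-200 nM to universal all-10-mer Agilent arrays double-stranded by primer extension, the bound protein was detected with fluorescent anti-GST. E-scores, modified Wilcoxon-Mann-Whitney statistics, were given by the Universal PBM Analysis Suite to ungapped eight-base words pooled with their reverse complements after masliner normalisation.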

Row | Sequence | PBM E-score
1 | CCAGGGCG | -0.18
2 | ACATCTGG | -0.0409
3 | GAAGGAGC | -0.432
4 | GCCCCACA | -0.159
5 | AAAGAGCG | -0.00921
6 | AACAAGCC | -0.0634
7 | GCTATTCC | -0.249
8 | CGTCCTTA | -0.0464
9 | GCGGGTCC | -0.207
10 | CACTTACA | 0.216
11 | CCCTATCC | -0.305
12 | AAAGAAAT | 0.122
13 | GCTGTCGA | -0.00555
14 | AAAAAGCG | 0.146
15 | ACCGACAA | -0.135
16 | GGGGCTCA | -0.294
17 | CGGGACCA | -0.178
18 | AATTTCAT | 0.0941
19 | ATTCCCCG | -0.0432
20 | CATTTGAG | 0.00166
21 | CACTGCTG | -0.0886
22 | AGTAGATC | -0.191
23 | CTGAGTGA | 0.187
24 | CAACAGTA | 0.028
25 | AATATTCA | 0.157

Row | Sequence | PBM E-score
26 | AAGTCCCA | -0.209
27 | AAACCCCC | -0.373
28 | AGACTTTC | -0.0105
29 | CTATCTCA | -0.0815
30 | ACATAATC | 0.309
31 | AGAGGAAT | -0.205
32 | GATGCGTA | 0.0108
33 | CAGTTCTC | -0.0867
34 | CAAGCTTG | -0.294
35 | ATGCCCTG | -0.0413
36 | ACCTTCTG | -0.064
37 | AGAGTATA | -0.0657
38 | GAGTTCCC | -0.0222
39 | ATGAGCCG | -0.0145
40 | CGCCCGTC | 0.0201
41 | AATACGGG | -0.0773
42 | ACAGCGCC | -0.0091
43 | AAGACCTA | -0.0863
44 | ACAGGTCA | -0.179
45 | CTCGGGTA | -0.0583
46 | GCGCCGCC | 0.137
47 | ATTCTACG | 0.0286
48 | GTAAGGTA | 0.0927
49 | GTGTACTA | 0.0433
50 | GTCGGAAA | 0.226

Row | Sequence | PBM E-score
51 | ACTTTCCG | 0.125
52 | AGCAATAC | 0.107
53 | ATCAATTA | 0.255
54 | TGTGTGAA | -0.0643
55 | ACCTTGGG | 0.0381
56 | AGGTGGCG | -0.115
57 | AATGTAGT | 0.0937
58 | ACTTGAGA | 0.016
59 | TCTACAAA | -0.065
60 | AACATGTA | 0.117
61 | AATCTTAT | 0.103
62 | GTTTTCGA | 0.0375
63 | AAAGTTCC | -0.151
64 | CATTGGTC | 0.145
65 | CACAAATC | 0.126
66 | AACGAAAG | 0.0872
67 | GGGGTGGA | -0.253
68 | AGTTTATG | -0.0699
69 | TCATGAAA | -0.0885
70 | GAGCCGGC | -0.00786
71 | CGTGAGCC | -0.114
72 | CACCTCTC | -0.253
73 | CTAAGATA | -0.0701
74 | CAGTTCGG | 0.0626
75 | ATGTGTCG | 0.162

Row | Sequence | PBM E-score
76 | GTATCTAA | 0.112
77 | TCCGTACA | 0.176
78 | AGGCAGTA | -0.103
79 | TAACGAAA | 0.26
80 | GAACATAC | 0.0334
81 | ACAAAAAC | 0.248
82 | GGCAACAC | 0.0577
83 | GACTACAA | -0.127
84 | ACGAGCGA | 0.0401
85 | CGCAGATA | 0.00255
86 | ATCTCGAC | 0.0915
87 | CAGGAGGA | -0.292
88 | GAATGGCA | -0.16
89 | ACAGTGCG | -0.0424
90 | GAGCGATA | 0.0906
91 | ACTCCTCG | 0.0152
92 | CTAGTTGC | 0.0214
93 | AAGAATAT | -0.0257
94 | GCGCACAA | 0.24
95 | ACGGTGTA | 0.0708
96 | CGTCCCCC | -0.494
97 | AGTCGTTA | -0.0111
98 | ATACCATC | 0.0988
99 | CCTTGTTA | -0.0461
100 | ATCTGATG | 0.00913

Row | Sequence | PBM E-score
101 | GCGGAAAC | -0.151
102 | ATAATCGG | 0.126
103 | AGTCTGGG | -0.109
104 | AACACGGC | -0.0858
105 | AACTCTTG | -0.0936
106 | AGCAATGC | 0.202
107 | AGTCGATA | 0.0177
108 | AGATGGGA | -0.204
109 | AGACAGAT | 0.131
110 | ATAAGGCC | 0.00589
111 | GATCAAAA | 0.144
112 | AAACGAAG | 0.0229
113 | CGACGTTC | -0.265
114 | CTCTGCAA | -0.124
115 | ATTCCTAA | 0.0977
116 | GCGACTCC | -0.205
117 | TGTCATAA | 0.137
118 | GTAAAAAA | 0.137
119 | TGGCTAAA | 0.0225
120 | GTGCGCCA | -0.14
121 | ATACGCTA | 0.0632
122 | AGACGGAG | -0.033
123 | GATATGAA | 0.113
124 | CACAGCGA | 0.133
125 | CCGTTACC | -0.0536

Row | Sequence | PBM E-score
126 | GTCGAATA | 0.011
127 | CATAATGG | -0.15
128 | ATCTTAGA | 0.0752
129 | ATTATGTA | 0.311
130 | GTGACGCA | 0.0431
131 | AAGTATAC | 0.159
132 | ACGTCTGG | 0.00628
133 | ACTCCCCC | -0.384
134 | ACTTGAAC | 0.0412
135 | CACTAATG | -0.0516
136 | ACCAGTCT | -0.116
137 | ACTCTTCA | -0.0384
138 | ACCGGTTG | 0.0637
139 | CGTCTCTC | -0.00939
140 | CGGGGGCA | -0.409
141 | CAACCAAG | -0.0607
142 | CAAAAACG | 0.154
143 | CTCGAAAA | -0.0994
144 | ACCTCTGG | -0.148
145 | CAGACCCC | -0.299
146 | AAACCCTA | -0.0833
147 | GACGAATC | 0.0657
148 | AGTAACAG | 0.0348
149 | CGCTCATA | 0.0319
150 | AGATACCC | 0.0764

Taken from above:
Value for GCCCCACA under PBM E-score: -0.159
Value for AGTCGTTA under PBM E-score: -0.0111
Value for AATGTAGT under PBM E-score: 0.0937
Value for CCAGGGCG under PBM E-score: -0.18
Value for GTAAGGTA under PBM E-score: 0.0927
Value for CTCGGGTA under PBM E-score: -0.0583
Value for AATCTTAT under PBM E-score: 0.103

Next part

Row | Sequence | PBM E-score
151 | AAGCCCGG | -0.00105
152 | ACATGAGC | -0.0831
153 | GAACGATA | -0.0378
154 | GGATCACA | 0.114
155 | TAGAGAGA | -0.014
156 | CCCCAGGG | -0.42
157 | AGAGATGG | 0.081
158 | ACAAATCA | 0.279
159 | GTGATAAC | 0.0507
160 | CGGTTCTA | 0.06
161 | ATGCCCAC | 0.0213
162 | CTCCAACC | -0.0598
163 | CACCGCCA | 0.0256
164 | CAATTGCC | 0.201
165 | GCGTCGCC | 0.0318
166 | AGTTCGAG | 0.179
167 | AAATTCAC | 0.0164
168 | AACGTCAC | 0.0773
169 | GGGCGCAA | 0.117
170 | GGATTATA | -0.015
171 | GATAAATA | 0.123
172 | GGCTAAAC | -0.00104
